Some results were stated once for a whole list of compounds, not compound by compound.
Target: neuraminidase of influenza virus A/California/04/09 (Influenza A virus, UniProt C3W5S3)
Format: biochemical
Details: read-out: neuraminidase activity IC50

Structure (SMILES) | IC50 [nM]
C#CCOC(=O)C1=C[C@@H](OC(CC)CC)[C@H](NC(=O)C(F)F)[C@@H](NC(=N)N)C1 [1.8, prop-2-ynyl (3R,4R,5S)-5-guanidino-4-(2,2-difluoroacetamido)-3-(pentan-3-yloxy)cyclohex-1-enecarboxylate] | < 1
C=CCOC(=O)C1=C[C@@H](OC(CC)CC)[C@H](NC(=O)C(F)F)[C@@H](NC(=N)N)C1 [1.7, allyl (3R,4R,5S)-5-guanidino-4-(2,2-difluoroacetamido)-3-(pentan-3-yloxy)cyclohex-1-enecarboxylate] | < 1

Reference: patent US8895613B2 (priority 2013, dated 2014)
